Reference: article PMC11633369
No constants are given. Whether binding was seen depends on the method and setting. Binding calls can cover weak binding; strength is not graded here.

Protein sequences, listed by entry. Tags and fused reporters are not part of them. Lines headed by an entry give the natural chain unless they say otherwise; changes in a name come on top.
UniProt A0A3Q7IBT0: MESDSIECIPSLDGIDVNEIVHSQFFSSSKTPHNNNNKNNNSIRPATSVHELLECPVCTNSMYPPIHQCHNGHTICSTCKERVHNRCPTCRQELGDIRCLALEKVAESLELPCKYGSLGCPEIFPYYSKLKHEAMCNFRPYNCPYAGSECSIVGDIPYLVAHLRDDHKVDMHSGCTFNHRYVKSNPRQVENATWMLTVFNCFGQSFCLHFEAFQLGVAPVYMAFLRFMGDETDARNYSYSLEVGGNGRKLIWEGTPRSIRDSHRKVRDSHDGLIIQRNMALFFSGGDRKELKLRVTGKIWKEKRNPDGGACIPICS
UniProt A0A3Q7FN26: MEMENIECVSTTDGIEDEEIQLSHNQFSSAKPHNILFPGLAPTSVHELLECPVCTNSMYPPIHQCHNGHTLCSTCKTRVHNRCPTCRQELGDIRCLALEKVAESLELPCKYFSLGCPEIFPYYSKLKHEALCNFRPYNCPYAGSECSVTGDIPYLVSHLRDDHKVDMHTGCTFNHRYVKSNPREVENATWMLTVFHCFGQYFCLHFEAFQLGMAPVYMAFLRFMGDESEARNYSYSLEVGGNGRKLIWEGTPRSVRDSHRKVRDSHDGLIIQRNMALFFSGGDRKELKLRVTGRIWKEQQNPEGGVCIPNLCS
UniProt A0A3Q7F640: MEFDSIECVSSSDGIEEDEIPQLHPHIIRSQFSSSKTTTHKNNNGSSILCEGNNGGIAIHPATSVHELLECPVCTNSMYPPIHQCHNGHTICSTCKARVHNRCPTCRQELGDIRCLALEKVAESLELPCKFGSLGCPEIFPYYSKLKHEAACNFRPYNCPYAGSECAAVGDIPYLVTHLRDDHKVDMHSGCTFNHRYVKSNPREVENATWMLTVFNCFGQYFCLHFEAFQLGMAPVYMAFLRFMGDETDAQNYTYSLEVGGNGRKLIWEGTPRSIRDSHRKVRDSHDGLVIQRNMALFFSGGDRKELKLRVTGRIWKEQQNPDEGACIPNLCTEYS
UniProt A0A3Q7HES6: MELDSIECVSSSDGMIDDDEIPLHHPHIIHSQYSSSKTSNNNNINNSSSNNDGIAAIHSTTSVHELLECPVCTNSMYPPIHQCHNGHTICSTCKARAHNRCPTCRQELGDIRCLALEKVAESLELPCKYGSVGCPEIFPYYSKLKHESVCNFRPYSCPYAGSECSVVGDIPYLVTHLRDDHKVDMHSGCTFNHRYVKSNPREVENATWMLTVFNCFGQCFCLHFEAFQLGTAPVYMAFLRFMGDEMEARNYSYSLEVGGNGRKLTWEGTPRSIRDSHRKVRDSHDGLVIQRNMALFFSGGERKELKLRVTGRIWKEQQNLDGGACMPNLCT
UniProt A0A3Q7E8S5: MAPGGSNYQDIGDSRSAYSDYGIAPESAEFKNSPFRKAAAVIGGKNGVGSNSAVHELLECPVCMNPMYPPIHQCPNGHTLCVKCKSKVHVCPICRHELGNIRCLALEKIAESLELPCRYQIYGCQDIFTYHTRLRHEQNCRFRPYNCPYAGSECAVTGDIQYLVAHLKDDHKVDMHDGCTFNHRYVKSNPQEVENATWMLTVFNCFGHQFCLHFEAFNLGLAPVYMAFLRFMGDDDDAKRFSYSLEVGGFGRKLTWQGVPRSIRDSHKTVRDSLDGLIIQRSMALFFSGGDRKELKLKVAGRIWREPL

target: MBP‐BSD1‐HA (tomato (Solanum lycopersicum)); experiment: pull-down; 20 µg MBP-BSD1-HA coupled to anti-HA Affinity Matrix, blocked with BSA; 20 µg precleared MBP-SINA1-6 or MBP-RHA1B added, 1 h at 4 °C; 20 mM HEPES-KOH pH 7.9, 15% glycerol, 0.2 mM EDTA, 0.2% NP-40, 1 mM DTT, 0.1 M NaCl; Western blot with anti-MBP; both purified

binding, binds:
MBP‐SINA6 (from UniProt A0A3Q7IBT0) (enzyme), MBP‐SINA5 (from UniProt A0A3Q7FN26) (enzyme), MBP‐SINA2 (from UniProt A0A3Q7F640) (enzyme), MBP‐SINA3 (from UniProt A0A3Q7HES6) (enzyme), MBP‐SINA1 (from UniProt A0A3Q7E8S5) (enzyme)
